Values quoted from earlier work in patent publication US20230285258A1, “A SUNSCREEN FORMULATION” (priority 2019, published 2023).
Some results were stated once for a whole list of compounds, not compound by compound. At least one structure is not confirmed: it was looked up by name or label, or the drawing left a doubt. Some compounds share one range, which may span the group rather than tell each member.

Details: females and males; cited from earlier work

SMILES: CCCCC(CC)COC(=O)C=Cc1ccc(OC)cc1 (stereo not drawn) [octyl methoxycinnamate]
- time after application at which maximum plasma concentration was reached: 3 to 4 h

SMILES: COc1ccc(C(=O)c2ccccc2)c(O)c1 [oxybenzone]
- time after application at which maximum plasma concentration was reached: 3 to 4 h

SMILES: Cc1ccc(C=C2C(=O)C3(C)CCC2C3(C)C)cc1 (stereo not drawn) [4-methylbenzylidene camphor]
- time after application at which maximum plasma concentration was reached: 3 to 4 h
